{"source": "patent US12403161B2", "about": "“Compositions for drug delivery and methods of use thereof” (Stellular Bio, Inc., priority 2018, dated 2025)", "key": {"[1]": {"tested_on": "human washed platelets", "test": "Small-molecule loading of human washed platelets by passive diffusion", "type": "cell-based", "conditions": "100 μM", "experimental": "100 μM of Doxorubicin was used with a preparation of 1e7 platelets in 1 ml of buffer and incubated at ambient temperature for 30, 120, 240, and 1440 minutes under constant agitation on an orbital shaker in a dialysis cassette (Thermofisher #88400). […] A kinetic study was employed to understand the minimum and maximum amount of time necessary for doxorubicin encapsulation in the washed platelets."}, "[2]": {"tested_on": "human iPSC-derived platelets", "test": "Passive loading of Ipilimumab into human iPSC-derived platelets", "type": "cell-based"}, "[3]": {"tested_on": "CD34+ mobilized peripheral blood-derived platelets", "test": "Passive loading of Cy5.5 Ipilimumab into CD34+ mobilized peripheral blood-derived platelets", "type": "cell-based, human"}, "[4]": {"tested_on": "human iPSC-derived platelets", "test": "Covalent conjugation of Ipilimumab to human iPSC-derived platelets", "type": "cell-based"}, "[5]": {"tested_on": "donor-derived, human washed platelets", "test": "Passive loading of antibody into donor-derived, human washed platelets (flow cytometry, immunofluorescence)", "type": "cell-based"}, "[6]": {"tested_on": "iPSC-derived megakaryocytes and platelets", "test": "Passive loading of Dylight 488-labeled Atezolizumab into iPSC-derived megakaryocytes", "type": "cell-based, human"}}, "note": "Counter-ions that a name gives are not always drawn."}
{"molecule": "COc1cccc2c1C(=O)c1c(O)c3c(c(O)c1C2=O)C[C@@](O)(C(=O)CO)C[C@@H]3O[C@H]1C[C@H](N)[C@H](O)[C@H](C)O1", "note": "[doxorubicin, Doxorubicin hydrochloride]", "values": [{"measurement": "doxorubicin signal after 1440 minutes", "setting": "[1]", "result": "signal retained"}]}
{"molecule": "Ipilimumab", "values": [{"measurement": "localization of Ipilimumab (immunofluorescence, CD61 and PF4)", "setting": "[2]; 100 μg/ml, not conjugated to Cy5.5", "result": "on the cell surface and within select alpha granules"}, {"measurement": "dose dependence of Ipilimumab encapsulation (flow cytometry)", "setting": "[2]; 1, 10, 30, 60 μg per 1e6 platelets in 100 microliter, 37° C. 1 hour, washed", "result": "dose-dependent increase in Ipilimumab encapsulation"}, {"measurement": "drug signal localization (immunofluorescence, PF4 and CD61)", "setting": "[3]", "result": "punctate within the cell"}, {"measurement": "dose dependence of Cy5.5 conjugated Ipilimumab bound to platelets", "setting": "[3]; flow cytometry histogram", "result": "dose-dependent increase"}, {"measurement": "input ratio sufficient to see a maximal signal by flow cytometry", "setting": "[3]; pg of Ipilimumab per platelet in the reaction vessel", "result": "100-300 pg/plt"}, {"measurement": "maximal signal at varying concentrations", "setting": "[3]; up to 600 μg/ml Ipilimumab", "result": "without a maximal signal established"}, {"measurement": "localization of conjugated Ipilimumab (CD61 and PF4 staining)", "setting": "[4]", "result": "conjugated mostly on the cell surface"}]}
{"molecule": "atezolizumab", "values": [{"measurement": "localization of antibody in platelets (confocal microscopy)", "setting": "[5]; AlexaFluor 488 anti-human IgG, CD61-APC", "result": "sub-cellular localization within the platelets"}, {"measurement": "dose dependence of antibody uptake (fluorescence intensity by flow cytometry)", "setting": "[5]; fluorophore-labeled antibody, dose titer, co-incubation with platelet suspension", "result": "dose-dependent escalation in antibody loading"}, {"measurement": "uptake of labeled anti-PD-L1 antibody by platelets", "setting": "[5]; human donor platelets", "result": "up to 200 μg"}, {"measurement": "plateau or maximum dose of uptake", "setting": "[5]; up to 200 μg", "result": "did not exhibit a plateau or maximum dose of uptake"}, {"measurement": "uptake of atezolizumab by megakaryocytes and static generated platelets", "setting": "[6]; 30 minutes incubation", "result": "capable of uptake"}, {"measurement": "localization of Atezolizumab in megakaryocytes", "setting": "[6]; PF4 stain", "result": "colocalize with the alpha granule stain PF4"}]}
